{"source": "PubChem BioAssay AID504582", "about": "(Broad Institute, 2011)", "note": "Out of some 340,000 compounds screened, about 2,300 (0.68%) were called active. Inconclusive means that the source gave no clear call. Such entries were picked first, then a sample of the others. Cut-off read from the data, not from the text of the source: active = growth rescue above about 28% (passing the limit was not always enough); inconclusive = no clear call, values can overlap the other calls.", "data": [{"assay": "rescue of yeast from PfHsp40 toxicity, primary screen, S. cerevisiae, ATP luminescence (AID 504582);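 note: yeast W303a lacking pdr1 and pdr3 grown in galactose medium; growth measured after three days at 30 °C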", "details": "S. cerevisiae expressing PfHsp40, growth rescue, at 12.5 µM, hits give high values", "values": [{"smiles": "CC(=NNC(=S)Nc1cccc(Cl)c1)c1ccccn1", "growth rescue": "inconclusive: 43.9%"}, {"smiles": "Cc1ccc(CCNC(=O)CN(c2cc(C)cc(C)c2)S(=O)(=O)c2c(C)noc2C)cc1", "growth rescue": "inconclusive: 42.1%"}, {"smiles": "Cc1nc2nc(SCC(=O)N3CCOCC3)nn2c(C)c1Cc1c(F)cccc1Cl", "growth rescue": "inactive: 0.288%"}, {"smiles": "Cc1c(NC(=O)c2cc(Br)ccc2Cl)cccc1-n1cnnn1", "growth rescue": "inactive: -0.873%"}, {"smiles": "Cc1c(O)c(CN2CCCCC2)cc2c3c(c(=O)oc12)CCC3", "growth rescue": "inconclusive: 65.6%"}, {"smiles": "O=[N+]([O-])c1ccc(O)c(C=NNc2ccc(S(=O)(=O)O)cc2)c1", "growth rescue": "inactive: -0.883%"}, {"smiles": "CCN1CCN(c2oc(/C=C/c3ccccc3)nc2C#N)CC1", "growth rescue": "inactive: -1.06%"}, {"smiles": "Cc1cccc(OCCOc2ccccc2C=C(C#N)C#N)c1", "growth rescue": "inconclusive: 34.1%"}, {"smiles": "COc1ccc2nc(SCC(=O)NC3CCCCC3)[nH]c2c1", "growth rescue": "inactive: -0.128%"}, {"smiles": "O=[N+]([O-])c1cc(CN2CCN(c3cccc(C(F)(F)F)c3)CC2)c2cccnc2c1O", "growth rescue": "active: 48.1%"}, {"smiles": "Cc1cccn2c(=S)[nH]nc12", "growth rescue": "inconclusive: 35.8%"}, {"smiles": "CCN(CC)c1nc2c(s1)C(=O)CC(C)(C)C2", "growth rescue": "inactive: 1.58%"}, {"smiles": "Cc1cc(C)cc(-n2ncc3c2CCCC3NC(=O)CN2CCCC2=O)c1", "note": "(stereo unspecified)", "growth rescue": "inconclusive: 30.2%"}, {"smiles": "CCOc1ccc(-c2nnc(SCC(=O)Nc3cc(C)on3)o2)cc1", "growth rescue": "inconclusive: 28.1%"}, {"smiles": "COC(=O)[C@@]12CCCN1[C@H](c1ccc(-c3ccc(F)cc3)cc1)[C@H]1C(=O)N(C)C(=O)[C@H]12", "growth rescue": "inconclusive: 37.2%"}, {"smiles": "COC(=O)c1c(C)[nH]c(C(=O)CN(C)CC(=O)Nc2cccc(F)c2)c1C", "growth rescue": "inactive: 0.474%"}, {"smiles": "CCCCN1C=C(C(=O)OC)C(c2ccccc2Cl)C(C(=O)OC)=C1", "growth rescue": "inactive: -0.978%"}, {"smiles": "O=C(N/N=C/c1cc(Cl)cc(Cl)c1O)c1ccncc1", "growth rescue": "inconclusive: 103%"}, {"smiles": "CCCCn1nc2cc(C(=O)NCc3ccccc3OC)ccc2c1OCC", "growth rescue": "inconclusive: 50.5%"}, {"smiles": "CC(C)=CCc1c(O)cc2c(=O)c3ccc(O)cc3oc2c1O", "growth rescue": "active: 147%"}, {"smiles": "Cc1cccc(OCC(=O)Nc2ccc(CN3CCOCC3)cc2)c1C", "growth rescue": "inactive: 0.106%"}, {"smiles": "COc1ccc(C=NNC(=O)c2cc(C)oc2C)cc1O", "growth rescue": "inactive: -1.25%"}, {"smiles": "O=C(Nc1ccc(N2CCOCC2)nc1)c1ccc(C(F)(F)F)cc1", "growth rescue": "inconclusive: 30.1%"}, {"smiles": "CCCCCCCCCCOC(=O)Cn1c(COc2cccc(OC)c2)[n+](C)c2ccccc21", "growth rescue": "inconclusive: 68%"}, {"smiles": "Cc1cc2sc3ccc(C#CC4(O)CCCCC4)cc3c(=O)c2cc1C", "growth rescue": "inactive: 0.843%"}, {"smiles": "COc1ccc(-c2cc(C(F)F)n3ncc(C(=O)N4CCc5ccccc54)c3n2)cc1", "growth rescue": "inconclusive: 66%"}, {"smiles": "COc1ccc(NC(=O)CN(C)C(=O)CNC(=O)c2ccc3c(c2)OCO3)cc1", "growth rescue": "inconclusive: 30.6%"}, {"smiles": "C=CCNc1nnc(SC2CC(=O)N(c3ccc(OC)cc3)C2=O)s1", "note": "(stereo unspecified)", "growth rescue": "inconclusive: 37%"}, {"smiles": "CCc1cc2c(=O)oc(-c3ccccc3F)nc2s1", "growth rescue": "inconclusive: 26%"}, {"smiles": "S=C(NCCN1CCOCC1)Nc1ccc(Cl)cc1Cl", "growth rescue": "inactive: 1.49%"}, {"smiles": "COc1ccc(/C=C/C(=O)NC(C)C)cc1Br", "growth rescue": "inactive: 0.47%"}, {"smiles": "CCOc1cc([N+](=O)[O-])cc(/C=N/NC(=O)c2c(-c3ccccc3)noc2C)c1O", "growth rescue": "active: 261%"}, {"smiles": "O=C(Nc1ncccc1O)c1cccc(S(=O)(=O)N2CCc3ccccc32)c1", "growth rescue": "active: 65.7%"}, {"smiles": "COc1ccc(NC(=O)CCNC(=O)Cn2ccc3ccccc3c2=O)cc1Cl", "growth rescue": "inconclusive: 51.1%"}, {"smiles": "O=C(O)c1ccc2c(c1)N(Cc1cccc(F)c1)C(=O)CS2", "growth rescue": "inactive: 0.199%"}, {"smiles": "C=C(C)COc1ccc(-c2n[nH]c(C)c2-c2ccc(OC)cc2)c(O)c1", "growth rescue": "inconclusive: 273%"}, {"smiles": "Cc1ccc(-c2nc3ccccc3[nH]2)cc1NC(=S)NC(=O)c1ccccc1Br", "growth rescue": "inconclusive: 126%"}, {"smiles": "COc1cc(NC(=O)COC(=O)CNC(=O)c2ccc(C)cc2)c(C)cc1[N+](=O)[O-]", "growth rescue": "active: 86.4%"}, {"smiles": "Oc1ccccc1-c1cc(-c2ccc3c(c2)OCCO3)n[nH]1", "growth rescue": "active: 476%"}, {"smiles": "O=C(COC(=O)/C=C/c1cccc([N+](=O)[O-])c1)Nc1cccnc1Cl", "growth rescue": "inconclusive: 25%"}, {"smiles": "C#CCOCCOCCOCCNc1nc(N2CCN(C(=O)[C@H](CCCCN)n3cc([C@@H](N)C(C)CC)nn3)CC2)nc(N2CCN(C(=O)[C@H](Cc3cc4ccccc4[nH]3)n3cc([C@@H](N)CC(C)C)nn3)CC2)n1", "note": "(stereo partly specified)", "growth rescue": "active: 38.6%"}, {"smiles": "Cc1cc2ncn(-c3ncnc4scc(-c5ccccc5)c34)c2cc1C", "growth rescue": "inconclusive: 28.5%"}, {"smiles": "O=C(N/N=C/C(Br)=C/c1ccccc1)c1cnccn1", "growth rescue": "inactive: 0.337%"}, {"smiles": "Cc1cc2c(=Cc3ccc(N(C)C)cc3)c3ccccc3n2[n+]1C", "growth rescue": "active: 180%"}, {"smiles": "C=CCN1CCc2c(cc(O)c(O)c2Cl)C(c2ccccc2)C1", "note": "(stereo unspecified)", "growth rescue": "active: 46.4%"}, {"smiles": "CC1Cc2ccccc2N1C(=O)Cn1cnc2ccccc2c1=O", "note": "(stereo unspecified)", "growth rescue": "inconclusive: 27.4%"}, {"smiles": "COc1ccc(OCC(O)CNCCNc2nccc(C(F)(F)F)n2)cc1", "note": "(stereo unspecified)", "growth rescue": "active: 62.4%"}, {"smiles": "O=C(O)COc1ccccc1C(Nc1cccnc1)c1cc(Cl)c2cccnc2c1O", "note": "(stereo unspecified)", "growth rescue": "active: 106%"}, {"smiles": "c1ccc(CCNc2ccnc3cc4ccccc4cc23)cc1", "growth rescue": "active: 189%"}, {"smiles": "CC(=O)N(C1=C(Cl)C(=O)c2ccccc2C1=O)C1CCCCC1", "growth rescue": "active: 147%"}, {"smiles": "O=C(NCc1ccc2c(c1)OCO2)c1ccc(Br)cc1", "growth rescue": "inconclusive: 30.8%"}, {"smiles": "O=C1Nc2ccc(F)cc2C12Nc1ccccc1-c1nnc(SCc3ccccc3Cl)nc1O2", "note": "(stereo unspecified)", "growth rescue": "inconclusive: 37.9%"}, {"smiles": "CC1=C(C(=O)O)N2C(=O)C(NC(=O)c3nn(C)c(C)c3Cl)C2SC1", "note": "(stereo unspecified)", "growth rescue": "inactive: 0.557%"}, {"smiles": "Cn1c(SCC(=O)Nc2ccc(NC(=O)c3ccccc3F)cc2)nnc1-c1ccncc1", "growth rescue": "inactive: 0.395%"}, {"smiles": "CC[C@@H](C)[C@@H](C(=O)N1CCN(C(=O)OC(C)(C)C)CC1)n1cc(CCC(=O)O)nn1", "growth rescue": "inconclusive: 37.2%"}, {"smiles": "Cc1nc2cc(C(=O)NCc3ccc4c(c3)OCO4)ccc2n1-c1ccc(Br)cc1", "growth rescue": "inactive: 9.31%"}]}]}
